Measured values as given in patent publication US20240277851A1, “siRNA DELIVERY VECTOR” (COUNCIL OF SCIENTIFIC & INDUSTRIAL RESEARCH, priority 2021, published 2024).
At least one structure is not confirmed: it was looked up by name or label, or the drawing left a doubt.

Assays:
siRNA = test: Agarose gel electrophoresis retardation assay (siRNA binding); details: ratios 1:1 to 7:1
Method: Gel electrophoresis was performed with agarose gel (1.5% w/v) in tris-acetate-EDTA buffer (40 mM) with one drop of ethidium bromide added (concentration of EtBr stock solution: 0.625 mg/ml in H2O), at 100 V for 30 min. The siRNA lipoplexes were prepared by complexing siRNA with Mito-Esc, Mito-isoscopoletin and octyl TPP cation at described P^+/P^− ratios. The samples were incubated for 30 min at room temperature prior to addition into a well. The siRNA bands were visualized under UV illumination at 365 nm.
Mito-Esc nanoparticle solutions were prepared at various concentrations according to the desired final P+:P− charge ratio. Twenty μL solution of the Mito-Esc/siRNA complex was prepared to maintain a constant amount of siRNA in each solution (1 μg in 10 μL), and varying the amount of Mito-Esc according to the P+:P− charge ratio. The prepared mixtures were gently vortexed for 5 min. and incubated for 30 min at room temperature for complex formation.
The efficiency of Mito-Esc to bind siRNA was checked by agarose gel electrophoresis. Also, in order to assess the importance of hydrogen bonding in forming the stable siRNA complexes, Mito-isoscopoletin was synthesized by protecting the dihydroxy group with methyl group. Octyl TPP cation was used as a negative control.

MDA-MB-231 cells = test: Intracellular delivery of Cy-5 siRNA by confocal imaging, MDA-MB-231; format: cell-based; details: MDA-MB-231, Cy-5 siRNA 40 nM, 24 h
Method: FIG. 5: Detection of intracellular delivery of Cy-5 siRNA by Mito-Esc using confocal imaging. MDA-MB-231 cells were transfected with Cy-5 labelled siRNA (40 nM) with indicated delivery systems for 24 h. Transfection efficacy was evaluated using Confocal Microscopy. Cy-5 fluorescence in the cytosol is shown in blue color (Scale bar 10X). Briefly, MDA-MB-231 cells were seeded on a coverslip in 12-well plates at a density of 3×10^4 cells per well in 1 mL complete DMEM and cultured for 12 h. Fluorescent (Cy-5) siRNA was complexed either with lipofectamine-2000 (positive control) or with Mito-Esc (2.5 μM) or parent esculetin (2.5 μM) or with different cationic lipids in serum free DMEM medium for 30 min before addition into the plates. These lipoplexes were added to the cells and incubated for 6 h. After that, cells were washed twice with PBS and fixed with 4% paraformaldehyde for 15 min. Finally, slides were mounted and the cells were imaged using a confocal microscope. Florescent labeled siRNA with Mito-Esc lipoplexes were prepared as described above and incubated with MDA-MB-231 cells for 24 h. The cells were stained by DAPI to stain the nucleus. The cells were mounted and observed under confocal microscope (Olympus, Tokyo, Japan).

MnSOD = MnSOD gene silencing by immunoblotting; format: cell-based; details: MDA-MB-231, siMnSOD 40 nM, 48 h
Method: FIG. 4: Mito-Esc/siMnSOD complex by depleting MnSOD levels exacerbates Mito-Esc-induced breast cancer cell death. (A) MDA-MB-231 cells were incubated either with Mito-Esc/siMnSOD (40 nM) complex or with lipofectamine-2000/siMnSOD complex for 48 h and cell viability was measured by trypan blue dye exclusion assay. (B) MDA-MB-231 cells were transfected with siMnSOD (40 nM) with indicated delivery systems for 48 h and MnSOD protein levels were measured by immunoblotting. Parenthesis indicates the relative expression of MnSOD normalized to GAPDH (loading control).
At the end of the treatments, cell pellets were lysed in a RIPA buffer containing protease inhibitor cocktail, phosphatase inhibitor cocktail-2, 3. Proteins were resolved by SDS-PAGE and blotted onto a nitrocellulose membrane and blocked with 5% bovine serum albumin, washed, and incubated with primary antibodies (1:1000) over night at 4° C. The membranes were then washed and incubated for 1 h with anti-rabbit/mouse IgG horseradish peroxidase linked secondary antibodies (1:5000). ECL reagent (Amersham GE) was applied on the membrane prior to developing with a chemiluminescent system (Bio-Rad).
Cells were cultured in 12-well plates at a density of 3×10^4 cells per well (containing a glass coverslip the day before use). […]

CCCCCCCC[P+](c1ccccc1)(c1ccccc1)c1ccccc1 [octyl TPP, octyltriphenylphosphonium]
P+/P− charge ratios at which siRNA is bound (migration retarded) (siRNA; earlier findings, FIG. 2D): did not bind the siRNA | P+/P− charge ratios at which siRNA is bound (migration retarded) (siRNA; further experiments, FIG. 2E): did not bind the siRNA | intracellular delivery of Cy-5 siRNA (MDA-MB-231 cells): failed to deliver the Cy-5 siRNA intracellularly | MnSOD protein levels (MnSOD): neither parent esculetin nor octyl TPP cation complexes were able to decrease MnSOD expression
